These are yes or no findings as the source states them, for the method shown. Binding seen in cells or lysates may run through a third protein. Some results given as binding are weak or reduced against the parent protein; the word gives no strength.
Experiments:
[1] = molecular target: β1-integrin (rat (endogenous in primary ATII cells of Sprague-Dawley rats)) (UniProt P49134); test: co-IP; endogenous proteins in primary rat ATII cell lysate (150 mM NaCl, 50 mM Tris-HCl pH 7.5, 1 % Nonidet P40, 0.5 % sodium deoxycholate); IP with anti-KCa3.1 or anti-β1-integrin antibody and protein A-agarose, overnight at 4 °C; washes up to 500 mM NaCl; immunoblot of the other protein; controls without lysate or without antibody
[2] = molecular target: KCa3.1 channel (rat (endogenous in primary ATII cells of Sprague-Dawley rats)) (UniProt Q9QYW1); test: as above

Sequences of proteins named here, by UniProt entry; tags and fusion partners are left off. Residues count along the entry.
UniProt P49134, residues 21-799: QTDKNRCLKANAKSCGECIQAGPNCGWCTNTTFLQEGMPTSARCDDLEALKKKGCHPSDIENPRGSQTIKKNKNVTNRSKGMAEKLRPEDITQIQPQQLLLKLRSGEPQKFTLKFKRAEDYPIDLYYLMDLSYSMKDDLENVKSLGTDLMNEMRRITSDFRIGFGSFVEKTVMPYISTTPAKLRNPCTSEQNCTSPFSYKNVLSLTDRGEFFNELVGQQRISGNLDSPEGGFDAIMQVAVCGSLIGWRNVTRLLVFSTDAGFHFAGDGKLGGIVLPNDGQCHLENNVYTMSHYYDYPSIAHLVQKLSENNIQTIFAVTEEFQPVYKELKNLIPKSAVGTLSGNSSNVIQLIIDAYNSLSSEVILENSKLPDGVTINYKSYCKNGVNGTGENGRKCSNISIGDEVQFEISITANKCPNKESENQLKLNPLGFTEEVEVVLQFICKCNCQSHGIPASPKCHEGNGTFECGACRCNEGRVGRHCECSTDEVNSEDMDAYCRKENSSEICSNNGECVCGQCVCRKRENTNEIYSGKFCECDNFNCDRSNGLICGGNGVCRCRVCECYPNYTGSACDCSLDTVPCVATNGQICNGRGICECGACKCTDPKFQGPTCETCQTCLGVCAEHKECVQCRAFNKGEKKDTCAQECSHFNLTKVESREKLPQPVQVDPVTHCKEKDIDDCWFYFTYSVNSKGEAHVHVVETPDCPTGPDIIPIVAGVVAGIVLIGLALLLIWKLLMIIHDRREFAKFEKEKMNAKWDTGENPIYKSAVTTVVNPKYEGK
UniProt Q9QYW1: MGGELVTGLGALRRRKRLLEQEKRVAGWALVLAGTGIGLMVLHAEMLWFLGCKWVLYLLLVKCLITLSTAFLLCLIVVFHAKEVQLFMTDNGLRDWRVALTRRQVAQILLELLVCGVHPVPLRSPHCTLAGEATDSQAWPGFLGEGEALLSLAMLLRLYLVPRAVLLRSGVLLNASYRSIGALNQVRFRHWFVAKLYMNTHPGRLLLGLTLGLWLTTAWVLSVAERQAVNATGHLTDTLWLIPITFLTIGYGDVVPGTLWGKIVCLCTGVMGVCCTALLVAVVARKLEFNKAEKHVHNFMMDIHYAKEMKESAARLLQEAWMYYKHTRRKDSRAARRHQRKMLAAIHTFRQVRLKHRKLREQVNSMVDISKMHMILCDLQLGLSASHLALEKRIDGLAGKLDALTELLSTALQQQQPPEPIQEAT

Row | binding [1] | binding [2] | Substance
1 | binds |  | KCa3.1 channel (from UniProt Q9QYW1 1-425)
2 |  | binds | β1-integrin (from UniProt P49134 21-799) (receptor)

Source: PMC4558634
